# No constants are given. Whether binding was seen depends on the method and setting. Binding calls can cover weak binding; strength is not graded here. Sequences can lack the tags named with a protein. For some assays here: In cells and extracts the contact can be indirect.
# Experiments:
# [1] = biological target: T1, BD-AtSCE1 (SUMO-conjugating E2 enzyme SCE1) (Arabidopsis thaliana) (UniProt Q42551); experiment: two-hybrid; Gal4-based system (Clontech); AD fusions in pGAD424, BD fusions in pGBT8; yeast AH109; growth on -Leu/-Trp/-His minimal medium with 1 or 5 mM 3-AT
# T1 sequence: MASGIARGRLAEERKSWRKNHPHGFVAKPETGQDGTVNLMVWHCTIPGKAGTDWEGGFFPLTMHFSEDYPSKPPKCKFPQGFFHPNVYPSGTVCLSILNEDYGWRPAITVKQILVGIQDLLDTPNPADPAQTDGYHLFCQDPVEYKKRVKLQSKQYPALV
# [2] = biological target: T2, BD-AtSUMO3 (Arabidopsis thaliana) (UniProt Q9FLP5); experiment: as above
# T2 sequence: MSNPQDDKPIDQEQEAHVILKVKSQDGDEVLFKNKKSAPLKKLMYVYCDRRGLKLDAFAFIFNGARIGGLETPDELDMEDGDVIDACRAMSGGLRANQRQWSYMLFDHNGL
# [3] = biological target: T3, BD-AtSUMO5 (Arabidopsis thaliana) (UniProt Q8VZI7); experiment: as above
# T3 sequence: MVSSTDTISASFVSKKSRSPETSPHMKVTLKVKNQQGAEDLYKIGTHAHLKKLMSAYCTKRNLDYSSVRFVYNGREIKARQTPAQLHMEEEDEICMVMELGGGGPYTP
# [4] = biological target: T4, EYFP(N)-CNGC6 (cyclic nucleotide-gated ion channel 6) (Arabidopsis thaliana) (UniProt O82226); experiment: split reporter; EYFP(N)-CNGC6 and EYFP(C)-SSV2 coinfiltrated into N. benthamiana leaves by Agrobacterium; YFP signal by CLSM
# T4 sequence: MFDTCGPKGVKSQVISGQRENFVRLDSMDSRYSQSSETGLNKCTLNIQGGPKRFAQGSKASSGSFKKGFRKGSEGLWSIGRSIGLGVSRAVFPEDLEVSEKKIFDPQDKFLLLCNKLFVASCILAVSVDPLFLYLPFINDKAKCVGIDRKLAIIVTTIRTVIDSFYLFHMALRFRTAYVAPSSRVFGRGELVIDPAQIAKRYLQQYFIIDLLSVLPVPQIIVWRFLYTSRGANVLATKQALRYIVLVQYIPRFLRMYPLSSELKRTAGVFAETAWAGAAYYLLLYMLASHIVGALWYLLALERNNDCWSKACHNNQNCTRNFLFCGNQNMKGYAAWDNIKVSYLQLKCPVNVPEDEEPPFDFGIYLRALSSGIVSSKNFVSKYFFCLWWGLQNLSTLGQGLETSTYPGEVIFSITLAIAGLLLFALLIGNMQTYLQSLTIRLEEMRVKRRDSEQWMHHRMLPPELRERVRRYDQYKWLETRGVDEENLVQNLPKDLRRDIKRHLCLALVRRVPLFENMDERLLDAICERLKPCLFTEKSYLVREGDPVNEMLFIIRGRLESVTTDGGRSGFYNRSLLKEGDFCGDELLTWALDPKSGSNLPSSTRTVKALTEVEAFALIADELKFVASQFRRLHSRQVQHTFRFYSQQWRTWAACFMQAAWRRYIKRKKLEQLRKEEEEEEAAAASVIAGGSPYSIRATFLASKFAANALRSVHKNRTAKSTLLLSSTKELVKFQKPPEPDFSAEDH
Substance,binding [1],binding [2],binding [3],binding [4]
"AD-SSV1 (SIZ1 splicing variant 1, 885 aa) (Arabidopsis thaliana) (enzyme)",binds,binds weakly,binds weakly,–
EYFP(C)-SSV2 (SIZ1 splicing variant 2) (Arabidopsis thaliana) (enzyme),–,–,–,binds

# Now from value to substance:
binding [1],binding [2],binding [3],binding [4],Substance
binds,binds,binds,–,"AD-SIZ1 (Arabidopsis E3 SUMO ligase SIZ1, 873 aa) (enzyme)"
binds,binds,binds,–,"AD-SSV2 (SIZ1 splicing variant 2, 832 aa) (Arabidopsis thaliana) (enzyme)"
binds,–,–,–,"AD-SSV3-D (SSV3 residues 1 to 858, lacking the SSV3-specific C-terminal 25 aa) (Arabidopsis thaliana) (domain or fragment)"
